Reference: US20250368742A1
Substitutions are numbered along the chain they refer to. Results are given in words; binding and its absence hold for the method and conditions named. Some entries that bind do so weakly or less than the wild type. Tags and fused reporters may be left off the sequences shown. Values belong to the binder of their own block, whether it stands above or below them.

By UniProt entry, the sequences of proteins in these tests, tags left out. Residues count along the entry.
UniProt P26718, residues 78-216: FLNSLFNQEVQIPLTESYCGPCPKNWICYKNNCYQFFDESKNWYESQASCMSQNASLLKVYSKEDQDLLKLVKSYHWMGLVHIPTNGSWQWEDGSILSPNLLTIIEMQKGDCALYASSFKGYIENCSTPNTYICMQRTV

Target: NKG2D-His (UniProt P26718)
Assay: ELISA: NKG2D-His coated, MICA/B-ECD titrated, detection 1D5 + anti-hFc-HRP

binding: binds
B1: MICA008-ECD-HISAvi (ligand)
chain: EPHSLRYNLTVLSWDGSVQSGFLAEVHLDGQPFLRYDRQKCRAKPQGQWAEDVLGNKTWDRETRDLTGNGKDLRMTLAHIKDQKEGLHSLQEIRVCEIHEDNSTRSSQHFYYDGELFLSQNLETEEWTVPQSSRAQTLAMNVRNFLKEDAMKTKTHYHAMHADCLQELRRYLESGVVLRRTVPPMVNVTRSEASEGNITVTCRASSFYPRNIILTWRQDGVSLSHDTQQWGDVLPDGNGTYQTWVATRICRGEEQRFTCYMEHSGNHSTHPVPSGKVLVLQSHWQHHHHHHGLNDIFEAQKIEWHE

binding: binds
B2: MICA004-ECD-HISAvi (ligand)
chain: B1 chain with L122V, G175S, T181R, I213T, R251Q
